Experimental data from patent EP3428178B1, “PEPTIDE FOR PREVENTING OR TREATING INFLAMMATORY DISEASES AND USE THEREOF” (dated 2026).
The structures given here were assigned with low confidence; some may be wrong.

Key:
[1] = system: collagen-induced arthritis (CIA) mouse model; experiment: Arthritis progression index in collagen-induced arthritis (CIA) mouse model
Procedure: A collagen-induced arthritis (CIA) mouse model was prepared as follows, as an autoimmune disease-based arthritis model with characteristics similar to human rheumatoid arthritis.
(§1) First, a bovine type II collagen (Chondrex Corporation, USA) and a Freund's complete adjuvant (Chondrex Corporation, USA) were mixed at a ratio of 1:1 and emulsified, and then 50 µl of the emulsified collagen solution was injected intradermally into the tail of a 6-week-old DBA/1J mouse to induce primary immunization. […]
In order to investigate the development of arthritis progression according to the peptide treatment of the present invention, the deepening degree of arthritis with time was measured by evaluating an arthritis progression index. Two observers who were unaware of the specific experimental conditions evaluated progression of arthritis three times a week. In this case, the arthritis progression index was evaluated by 0 to 4 scores per leg according to an arthritis progression evaluation standard by Rossoliniec and the like in Table 2 below to be represented by a total of 0 to 16 scores (a sum of four legs), and thereafter, two observers calculated an average value of the evaluated results to digitize the severity of arthritis. […]

[2] = system: joint region of collagen-induced arthritis mouse model; experiment: Histological analysis (H&E staining) of hind leg joint tissue of CIA mouse; conditions: FIG. 6
Procedure: First, a bovine type II collagen (Chondrex Corporation, USA) and a Freund's complete adjuvant (Chondrex Corporation, USA) were mixed at a ratio of 1:1 and emulsified, and then 50 µl of the emulsified collagen solution was injected intradermally into the tail of a 6-week-old DBA/1J mouse to induce primary immunization. At two weeks after the primary immunization, the bovine type II collagen and the Freund's complete adjuvant were mixed at a ratio of 1:1 and emulsified, and then 50 µl of the emulsified collagen solution was injected intradermally into the tail of the mouse again to induce secondary immunization (boosting). After the secondary immunization, the peptide of the present invention (the PSP dimer (1 µmole) or the PSP trimer (1 µmole)) was administered intraperitoneally three times a week from the next day, and as a comparative experimental group, a PSP monomer-treated group and as a control (Vehicle control), a PBS-treated group were used, respectively. The preparation process of the collagen-induced arthritis mouse model and the administration time of the peptide were schematically illustrated in FIG. 1.
In order to confirm a healing effect of the cartilage damage of the joint region according to the peptide treatment of the present invention, the deepening degree of arthritis in Example 2-2 was evaluated and then, a histological analysis was performed. […]

IL-18 = IL-18 expression in joint tissue by immunohistochemistry (IHC); conditions: FIG. 7
Procedure: as §1, with “immunization. At two weeks after the primary immunization, the bovine type II collagen and the Freund's complete adjuvant were mixed at a ratio of 1:1 and emulsified, and then 50 µl of the emulsified collagen solution was injected intradermally into the tail of the mouse again to induce secondary immunization (boosting).” for “immunization.”
Rheumatoid arthritis is one of chronic inflammatory diseases and it has been reported to increase the concentration of inflammatory cytokine such as interleukin-18 (IL-18) even in the joint tissues as well as the blood of a patient with rheumatoid arthritis. […] The expression of IL-18 was measured by using immunohistochemistry (IHC), and to this end, a paraffin ingredient was removed from the paraffin tissue fragment and then rehydrated to create an environment in which the antibodies may be stained. […]

O=C(N[C@@H](CO)C(=O)N1CCC[C@H]1C(=O)N1CCC[C@H]1C(=O)N[C@@H](CO)C(=O)N1CCC[C@H]1C(=O)N1CCC[C@H]1C(=O)N[C@@H](CO)C(=O)N1CCC[C@H]1C(=O)O)[C@@H]1CCCN1
arthritis progression index compared with methotrexate ([1]; methotrexate 1 mg/kg, Tables 6 and 7): approximate arthritis progression index to the group treated with methotrexate | swelling and redness around the ankle joint ([1]; visual check, compared with the control, FIG. 5): remarkably mitigated | immune cell infiltration, pannus formation, cartilage destruction, and bone erosion of the joint region [2]: greatly reduced | expression of IL-18 (IL-18): largely decreased to the normal mouse level
